Data source: PubChem BioAssay AID1671195 (Yale University, 2021)
In all, the deposit lists about 22,000 reagents; below is a part drawn at random. About 1,510 of them (6.9%) were called active. 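Active includes knockdowns raising or lowering LDL uptake; positive z-scores mean more uptake, negative mean less.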

- Assay: 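Knockdowns that increase or decrease uptake of fluorescent LDL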 (primary screen)
- Cell system: human Huh7 hepatoma cells
- Knock-down reagent: siRNA pool against human genes, 18 nM
- Time to read-out: about 2 to 2.5 days of knockdown, then 8 h LDL uptake
- Conditions: DiI-labelled LDL at 30 µg/ml for 8 h, in lipoprotein-deficient serum medium
- Read-out: 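Per-cell DiI-LDL intensity by automated imaging; well means scaled to the plate median and given as a robust z-score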
- Reading the numbers: robust z-score: higher = more LDL uptake after knockdown
- Active means: 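Active when two or more replicates show a robust z-score above 2 or below -2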

gene,PubChem SID,"robust z-score, replicate 1","robust z-score, replicate 2","robust z-score, replicate 3",Call
PLIN1,SID442889322,2.54,0.26,-1.07,inactive
YIPF2,SID442897356,0.126,-0.825,-0.433,inactive
UAP1L1,SID442899866,-1.12,-0.669,-0.252,inactive
MED17,SID442891820,0.0606,0.198,0.465,inactive
LOC401199 (retired record),SID442888447,2.24,-1.61,1.53,inactive
RAPGEF4,SID442894513,-0.03,-0.205,0.0208,inactive
KPNA2,SID442899786,-0.42,-0.944,-0.644,inactive
KIF13B,SID442883275,3.68,3.64,3.15,active
WFDC21P,SID442886586,0.702,1.38,1.27,inactive
AMDHD2,SID442893755,-0.241,0.896,-0.613,inactive
PRKCG,SID442903116,-1.31,-1.03,-1.33,inactive
LOC402095 (retired record),SID442902140,-0.979,-1.34,-0.739,inactive
KIT,SID442900589,-0.517,-1.11,-0.713,inactive
PRMT2IP,SID442889291,0.162,0.112,1.47,inactive
GPSM3,SID442888292,0.824,0.579,0.843,inactive
CDC25B,SID442889270,0.535,0.832,0.389,inactive
RDH12,SID442898446,-0.203,-0.67,-0.627,inactive
NOL12,SID442896510,-0.578,-0.128,-0.137,inactive
FLNA,SID442883276,3.89,4.39,2.17,active
LOC388134 (retired record),SID442888207,0.44,1.17,0.687,inactive
PUM1,SID442886633,1.02,0.738,1.55,inactive
MMGT1,SID442899264,-0.633,-0.371,-0.791,inactive
VSIG10L,SID442894857,-0.291,-0.0318,0.000168,inactive
RGL1,SID442895967,-0.292,-0.229,-0.153,inactive
SRMS,SID442885239,1.62,1.53,1.67,inactive
CDCA7,SID442901488,-0.929,-0.801,-0.991,inactive
ACSF2,SID442893728,0.31,-0.0292,-0.229,inactive
SLC39A10,SID442890207,0.0674,0.116,1.16,inactive
